For 1 substance, binding results are on record in publication PMC9859306.

Chains of the proteins cited; added tags and fusions are not shown. Lines headed by an entry give the natural chain unless they say otherwise; changes in a name come on top. A line that says so, or that is headed by a name, gives the form on record, which may keep a tag or linker.
UniProt Q9NRH3: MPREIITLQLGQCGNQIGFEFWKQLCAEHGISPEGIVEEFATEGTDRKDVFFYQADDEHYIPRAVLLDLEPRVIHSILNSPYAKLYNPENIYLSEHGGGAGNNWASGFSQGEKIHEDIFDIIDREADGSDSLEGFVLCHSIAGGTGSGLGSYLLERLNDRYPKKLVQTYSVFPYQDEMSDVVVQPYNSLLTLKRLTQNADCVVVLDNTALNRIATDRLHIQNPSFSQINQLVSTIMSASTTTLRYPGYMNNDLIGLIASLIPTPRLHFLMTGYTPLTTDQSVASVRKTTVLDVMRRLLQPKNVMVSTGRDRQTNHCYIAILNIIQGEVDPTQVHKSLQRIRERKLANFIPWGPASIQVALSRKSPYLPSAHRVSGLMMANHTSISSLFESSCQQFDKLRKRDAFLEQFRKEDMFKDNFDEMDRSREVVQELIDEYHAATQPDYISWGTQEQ
recombinant mutant TUBG2-FLAG p.(Met249Ile) (Q9NRH3, form named): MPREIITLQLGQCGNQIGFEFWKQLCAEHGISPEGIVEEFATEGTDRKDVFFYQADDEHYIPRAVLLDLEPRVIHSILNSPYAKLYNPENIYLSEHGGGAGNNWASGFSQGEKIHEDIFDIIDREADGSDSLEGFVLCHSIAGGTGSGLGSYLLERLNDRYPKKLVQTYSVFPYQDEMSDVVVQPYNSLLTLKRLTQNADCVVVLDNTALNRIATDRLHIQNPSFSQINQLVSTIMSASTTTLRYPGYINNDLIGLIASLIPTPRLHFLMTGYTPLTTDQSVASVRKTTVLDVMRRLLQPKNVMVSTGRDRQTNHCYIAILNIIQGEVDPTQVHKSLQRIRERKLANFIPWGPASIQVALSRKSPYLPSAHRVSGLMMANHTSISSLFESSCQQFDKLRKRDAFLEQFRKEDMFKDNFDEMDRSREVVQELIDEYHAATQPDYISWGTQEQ
UniProt Q9BSJ2: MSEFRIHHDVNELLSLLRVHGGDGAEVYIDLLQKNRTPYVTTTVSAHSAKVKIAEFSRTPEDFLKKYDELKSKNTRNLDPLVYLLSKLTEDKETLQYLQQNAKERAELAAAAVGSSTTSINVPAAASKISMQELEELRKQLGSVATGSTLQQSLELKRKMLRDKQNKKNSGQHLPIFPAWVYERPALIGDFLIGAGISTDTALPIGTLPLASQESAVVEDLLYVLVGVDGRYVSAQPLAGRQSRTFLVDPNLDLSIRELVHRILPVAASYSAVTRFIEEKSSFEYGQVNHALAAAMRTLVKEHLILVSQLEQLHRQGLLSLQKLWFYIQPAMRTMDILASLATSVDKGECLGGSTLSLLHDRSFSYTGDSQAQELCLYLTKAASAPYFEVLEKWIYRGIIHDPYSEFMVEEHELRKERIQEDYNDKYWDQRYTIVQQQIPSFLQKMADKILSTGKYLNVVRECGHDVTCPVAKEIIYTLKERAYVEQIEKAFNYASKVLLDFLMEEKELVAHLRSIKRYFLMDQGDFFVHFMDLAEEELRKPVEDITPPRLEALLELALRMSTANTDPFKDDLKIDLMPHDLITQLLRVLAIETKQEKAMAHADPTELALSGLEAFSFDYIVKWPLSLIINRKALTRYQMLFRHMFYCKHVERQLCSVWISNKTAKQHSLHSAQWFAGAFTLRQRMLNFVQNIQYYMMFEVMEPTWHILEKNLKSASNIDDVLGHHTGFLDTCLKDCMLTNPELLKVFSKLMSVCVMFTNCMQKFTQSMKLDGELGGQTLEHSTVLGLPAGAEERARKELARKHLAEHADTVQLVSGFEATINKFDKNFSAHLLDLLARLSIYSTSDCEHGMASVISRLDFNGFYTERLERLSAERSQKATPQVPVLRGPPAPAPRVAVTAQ

The target of assay [1] is recombinant mutant TUBG2-FLAG p.(Met249Ile) (human) (UniProt Q9NRH3). Kind of assay: co-IP; mouse anti-FLAG antibody pre-bound to protein G Dynabeads, incubated overnight at 4 °C with clarified lysate of 293T cells transfected with WT, variant TUBG2-FLAG or empty vector; 50 mM HEPES-KOH pH 7.2, 1 mM MgCl2, 1 mM EGTA, 100 mM KCl, 0.5 mM GTP; washes with 0.1% Tween-20; blot for GCP2.

Assay [2] addresses recombinant wild type TUBG2-FLAG (human) (UniProt Q9NRH3). The description is as above.

Results are given in words; binding and its absence hold for the method and conditions named. In cells and extracts the contact can be indirect. Some entries that bind do so weakly or less than the wild type.

As for GCP2 (from UniProt Q9BSJ2 1-902), the binding entry in assay [1] and in assay [2] was “binds” in each case.
